Measurements as given in patent publication EP2340832A1, “Morphinan-6-one compounds for the treatment or prevention of neurodegenerative diseases” (Universität Innsbruck, priority 2009, dated 2011).

Target: σ receptors labelled by [^3H]DTG (σ1 + σ2)
Assay: Sigma receptor binding assay, [3H]DTG
Conditions: read-out: IC50 ± SEM [^3H]DTG (σ1 + σ2); guinea pig brain membranes; compounds 1-5 tested up to 10 µM
Protocol: Filters were washed three times with 5 ml of ice-cold 10 mM Tris-HCI buffer (pH 8). The bound radioactivity was measured by liquid scintillation counting (Beckman Coulter™ LS6500). […] The values are expressed as the mean ± S.E.M of 2 - 4 independent experiments, each performed in duplicate.

Structure (SMILES): O=C(CCCN1CCC(O)(c2ccc(Cl)cc2)CC1)c1ccc(F)cc1 [Haloperidol, reference compound]
- IC50: 7.62 ± 1.4 nM
